Data reported in PMC3152785.

How the values were obtained:
[1] = target: T1, Spry1 expressed from the vector pcR3.1 (for co-immunoprecipitation) (mouse) (UniProt Q9QXV9); test: co-IP; HeLa cells co-transfected with Spry1 and Myc-tagged E1A12S, lysed 48 h after transfection in RIPA buffer; 0.5 mg lysate with 1.6 μg anti-Spry1 antibody 1.5 h at 4°C, Protein A/G Plus-agarose overnight; blots with anti-Spry1 and anti-Myc
T1 sequence: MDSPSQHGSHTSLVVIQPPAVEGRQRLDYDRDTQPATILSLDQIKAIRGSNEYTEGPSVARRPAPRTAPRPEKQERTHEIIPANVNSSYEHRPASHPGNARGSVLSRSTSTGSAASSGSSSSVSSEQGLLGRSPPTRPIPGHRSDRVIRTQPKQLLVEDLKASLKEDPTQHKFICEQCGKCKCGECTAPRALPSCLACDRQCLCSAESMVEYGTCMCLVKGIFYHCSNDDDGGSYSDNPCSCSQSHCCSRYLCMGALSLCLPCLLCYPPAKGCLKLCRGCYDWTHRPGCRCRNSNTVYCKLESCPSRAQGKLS

[2] = target: GST-Ad12 E1A9.5S fusion protein (Adenovirus serotype 12 (Ad12)); test: pull-down; 0.5 mg of precleared HeLa cell lysate with Myc-tagged Spry proteins incubated with 40 μg of GST-fusion protein for 1 h at 4°C, Glutathione Sepharose 4B; bound proteins by SDS-PAGE and anti-Myc immunoblot; only the target purified
[3] = target: GST-ΔNE1A12S (Ad12 E1A12S with a deletion of the first 29 N-terminal amino acids) (Adenovirus serotype 12 (Ad12)); test: as above

Myc-tagged Ad12 E1A12S (vector pcDNA3.1/myc-His(-)B) (Adenovirus serotype 12 (Ad12))
binding [1]: binds

B1: Myc-tagged mouse Sprouty4 (Spry4) (protein, UniProt Q9WTP2 1-300)
chain: MEPPVPQSSVPVNPSSVMVQPLLDSRAPHSRLQHPLTILPIDQMKTSHVENDYIDNPSLAPATGPKRPRGGPPELAPTPARCDQDITHHWISFSGRPSSVSSSSSTSSDQRLLDHMAPPPVAEQASPRAVRLQPKVVHCKPLDLKGPTAPPELDKHFLLCEACGKCKCKECASPRTLPSCWVCNQECLCSAQTLVNYGTCMCLVQGIFYHCTNEDDEGSCADHPCSCSGSNCCARWSFMGALSVVLPCLLCYLPATGCVKLAQRGYDRLRRPGCRCKHTNSVICKAASGDTKTSRSDKPF
binding [2]: binds | binding [3]: binds

B2: Myc-tagged mouse Sprouty2 (Spry2) (protein, UniProt Q9QXV8 1-315)
chain: MEARAQSGNGSQPLLQTAHDSGRQRGEPDPRDALTQQVHVLSLDQIRAIRNTNEYTEGPTVVPRPGLKPAPRPSTQHKHERLHGLPEHRQPPRLQPSQVHSSRAPLSRSISTVSSGSRSSTRTSTSSSSSEQRLLGPSFSHGPAAADGIIRVQPKSELKPGDVKPLSKDDLGLHAYRCEDCGKCKCKECTYPRPLPSDWICDKQCLCSAQNVIDYGTCVCCVKGLFYHCSNDDEDNCADNPCSCSQSHCCTRWSAMGVMSLFLPCLWCYLPAKGCLKLCQGCYDRVNRPGCRCKNSNTVCCKVPTVPPRNFEKPT
binding [2]: binds weakly | binding [3]: no binding

B3: Myc-tagged mouse Sprouty1 (Spry1) (protein, UniProt Q9QXV9 1-313)
chain: T1 sequence
binding [2]: binds | binding [3]: no binding

These are yes or no findings as the source states them, for the method shown. Binding seen in cells or lysates may run through a third protein. A result given as binding can be weak or reduced; the word gives no strength. For some of these results: Where a sequence is shown, tags or fusion partners need not be part of it.
